This note sets out measurements from paper doi:10.1101/227918.

The chains behind the UniProt entries cited, without tags or fusion partners. Where a name states a change or a piece, a line headed by the entry shows the natural chain unless it says otherwise.
UniProt O14672: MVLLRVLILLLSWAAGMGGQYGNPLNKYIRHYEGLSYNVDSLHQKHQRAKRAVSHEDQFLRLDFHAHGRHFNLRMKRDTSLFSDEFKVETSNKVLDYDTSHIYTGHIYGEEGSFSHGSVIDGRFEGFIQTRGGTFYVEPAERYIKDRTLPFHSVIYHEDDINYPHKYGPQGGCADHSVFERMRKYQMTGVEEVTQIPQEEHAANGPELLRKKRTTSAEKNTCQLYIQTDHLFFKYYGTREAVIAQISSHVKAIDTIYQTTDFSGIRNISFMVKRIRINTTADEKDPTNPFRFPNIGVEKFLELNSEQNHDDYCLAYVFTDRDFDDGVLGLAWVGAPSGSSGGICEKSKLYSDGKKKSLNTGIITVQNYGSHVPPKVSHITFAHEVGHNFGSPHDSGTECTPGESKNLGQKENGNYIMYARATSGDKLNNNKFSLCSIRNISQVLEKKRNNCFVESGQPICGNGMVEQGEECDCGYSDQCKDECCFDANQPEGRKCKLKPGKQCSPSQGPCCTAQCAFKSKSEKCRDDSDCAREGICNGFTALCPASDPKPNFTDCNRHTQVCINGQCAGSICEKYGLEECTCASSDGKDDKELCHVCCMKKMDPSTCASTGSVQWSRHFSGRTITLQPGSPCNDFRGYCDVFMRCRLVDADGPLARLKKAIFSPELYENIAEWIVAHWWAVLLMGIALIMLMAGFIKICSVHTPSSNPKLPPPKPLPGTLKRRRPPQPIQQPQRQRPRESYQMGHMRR

Results are given in words; binding and its absence hold for the method and conditions named. Binding seen in cells or lysates may run through a third protein. A result given as binding can be weak or reduced; the word gives no strength. Tags and fused reporters may be left off the sequences shown.

The target of the test is T1, FLAG-tagged Tspan14 (human) (UniProt Q8NG11).
T1 sequence: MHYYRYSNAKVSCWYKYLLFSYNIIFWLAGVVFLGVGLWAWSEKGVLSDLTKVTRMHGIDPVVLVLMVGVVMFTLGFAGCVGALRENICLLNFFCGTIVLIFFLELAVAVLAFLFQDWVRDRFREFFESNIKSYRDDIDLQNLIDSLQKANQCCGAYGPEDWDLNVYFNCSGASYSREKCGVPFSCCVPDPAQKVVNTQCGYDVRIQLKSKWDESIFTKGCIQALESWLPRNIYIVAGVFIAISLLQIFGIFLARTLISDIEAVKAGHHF
Briefly: co-IP.

Turning to “MYC-tagged ADAM10 (from UniProt O14672) (enzyme)”, the binding entry is on record as “binds”.
